# Laboratory results reported in publication PMC11099620.
# Protein sequences, listed by entry. Tags and fused reporters are not part of them. Residues count along the entry.
# UniProt Q14191, residues 910-1250: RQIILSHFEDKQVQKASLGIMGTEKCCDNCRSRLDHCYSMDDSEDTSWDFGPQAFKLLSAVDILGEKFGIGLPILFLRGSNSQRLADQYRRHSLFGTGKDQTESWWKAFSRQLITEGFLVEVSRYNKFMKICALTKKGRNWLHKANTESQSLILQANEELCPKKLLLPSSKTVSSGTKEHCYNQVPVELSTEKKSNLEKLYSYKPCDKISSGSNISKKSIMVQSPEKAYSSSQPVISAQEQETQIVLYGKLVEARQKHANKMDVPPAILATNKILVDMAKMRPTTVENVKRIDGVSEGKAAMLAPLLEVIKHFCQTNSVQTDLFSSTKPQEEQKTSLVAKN
# UniProt Q9Y3Z3: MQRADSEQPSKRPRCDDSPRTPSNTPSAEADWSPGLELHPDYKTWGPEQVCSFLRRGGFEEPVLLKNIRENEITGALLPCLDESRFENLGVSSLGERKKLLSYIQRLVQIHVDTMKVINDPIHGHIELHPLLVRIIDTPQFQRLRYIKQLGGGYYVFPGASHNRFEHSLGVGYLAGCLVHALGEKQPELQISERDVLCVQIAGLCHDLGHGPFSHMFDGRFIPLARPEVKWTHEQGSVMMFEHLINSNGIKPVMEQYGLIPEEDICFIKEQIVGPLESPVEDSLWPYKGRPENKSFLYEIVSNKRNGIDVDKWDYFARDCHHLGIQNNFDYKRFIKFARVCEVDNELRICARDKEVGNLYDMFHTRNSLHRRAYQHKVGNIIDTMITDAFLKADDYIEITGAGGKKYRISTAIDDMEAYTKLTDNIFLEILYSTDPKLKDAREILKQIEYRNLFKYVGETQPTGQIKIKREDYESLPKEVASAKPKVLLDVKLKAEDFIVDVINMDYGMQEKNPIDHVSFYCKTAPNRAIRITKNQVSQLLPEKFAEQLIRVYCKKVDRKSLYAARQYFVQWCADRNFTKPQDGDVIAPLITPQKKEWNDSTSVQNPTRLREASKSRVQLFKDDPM
# No constants are given. Whether binding was seen depends on the method and setting. In cells and extracts the contact can be indirect. Some results given as binding are weak or reduced against the parent protein; the word gives no strength.
# Target: GST-C-terminal WRN fragment (amino acids 910 to 1250) (human) (UniProt Q14191)
# Assay: pull-down; GST or GST-C-terminal WRN fragment on beads incubated 16 hours with 300 ng of HEK293T (nuclear) extracts, cells treated or not with 2 mM HU for 4 hours; Western blot with anti-GST and anti-SAMHD1; only the target purified
substance,measurement,value
SAMHD1 (endogenous in HEK293T cells) (from UniProt Q9Y3Z3 1-626),binding,binds
